Experimental data reported in paper PMC12040169 (PLOS Biology, 2025).

Test: in vitro
Conditions: human, hela cells, % viability

| SMILES | viability at 28.5 h, 10 µM [%] |
| --- | --- |
| CN1C2CC(OC(=O)C(CO)c3ccccc3)CC1C1OC12 (centres unmarked) [CBK261507C] | 97.7 |
| COc1ccc2cc(C(C)C(=O)O)ccc2c1 (centres unmarked) [CBK015987] | 91 |
